# Results: publication PMC8270905, “Structural basis of LAIR1 targeting by polymorphic Plasmodium RIFINs” (Nature Communications, 2021)
# No constants are given. Whether binding was seen depends on the method and setting. Binding seen in cells or lysates may run through a third protein. Binding calls can cover weak binding; strength is not graded here.
# What was measured:
# [1] = target: T1, RIFIN (PF3D7_0401300) V2 domain, as crystallised with MGD21 LAIR1 (Plasmodium falciparum 3D7) (UniProt Q8I211); assay: crystal structure; complex co-expressed and co-purified, tags removed with HRV3C, SEC in 5 mM HEPES pH 7.5, 150 mM NaCl; both purified
# T1 sequence: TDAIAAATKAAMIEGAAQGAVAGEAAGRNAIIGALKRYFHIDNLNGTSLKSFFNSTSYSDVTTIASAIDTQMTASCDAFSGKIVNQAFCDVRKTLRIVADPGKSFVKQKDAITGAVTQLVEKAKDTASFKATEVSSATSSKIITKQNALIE
# [2] = target: T2, RIFIN (PF3D7_1040300) V2 domain, as crystallised with MGD21 LAIR1 (Plasmodium falciparum 3D7) (UniProt Q8IJ06); assay: as above
# T2 sequence: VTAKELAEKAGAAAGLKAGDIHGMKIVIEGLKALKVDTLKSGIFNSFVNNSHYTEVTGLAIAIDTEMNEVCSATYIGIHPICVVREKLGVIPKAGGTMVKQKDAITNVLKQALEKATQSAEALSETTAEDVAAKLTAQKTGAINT
substance,measurement,setting,value
"LAIR1 ectodomain from antibody MGD21, as crystallised (human) (domain or fragment)",binding,[1],binds
same,binding,[2],binds
